Measured values reported in PMC9037752 (Frontiers in Nutrition, 2022).

Tested on: A7r5 cells
Experiment: RNA-Seq transcriptomics of Ang II-stimulated VSMCs
Assay type: cell-based, rat
[1] = FPQYLQYPY vs Ang II-treated group, GO enrichment analysis

FPQYLQYPY [FPQYLQYPY, also synthesized]
Number of differentially expressed genes (DEGs) (FPQYLQYPY treated group vs Ang II-treated group, 24 h, P < 0.05): 342
Number of significantly downregulated genes [1]: 117
Number of significantly upregulated genes [1]: 212

Ends that are not written are not given here.
